The labels stand for the following.
B1: h48D2 VH5.AP:VL4 (antibody, human IgG1, kappa, L234A L235A, V domains shown)
VH: QEQLEESGGGLVKPGGTLSLTCTVSGPSLSHFDITWIRQPPGSGLEWIGTISPGVSTYYASWAKSRVTISVDTSLNTVSLKLSSVTAADTATYFCARGGVGSSWKAFDLWGPGTLVTISS
VL: ELVMTQSPSSVSASVGDRVTITCQASESISTALAWYQQKPGKAPKLLIYKASTLPSGVPSRFSGSGSGTDFTLTINSLQPEDFATYYCQQGFSSGNVHNAFGGGTKVEIKR
B2: h48D2 VH5.SK:VL4 (antibody, human IgG1, kappa, L234A L235A, V domains shown)
VH: B1 VH with P40A, S43K
VL: B1 VL
B3: h48D2 VH3:VL3 (antibody, human IgG1, kappa, L234A L235A, V domains shown)
VH: EVQLLESGGGLVLPGGSLRLSCAASGPSLSHFDITWVRQAPGKGLEWVSTISPGVSTYYASWAKSRFTISRDNSKNTLYLQMSSLRAEDTAVYYCARGGVGSSWKAFDLWGLGTTVTVSS
VL: DILLTQTPSVVSASVGDRVTITCQASESISTALAWYQQKPGQAPRLLIYKASTLPSGVPSRFRGSGSGTDFTLTITSLQPEDFATYYCQQGFSSGNVHNAFGGGTRLEIKR
B4: h48D2 VH3:VL4 (antibody, human IgG1, kappa, L234A L235A, V domains shown)
VH: B3 VH
VL: B1 VL
B5: h48D2 VH2:VL2 (antibody, human IgG1, kappa, L234A L235A, V domains shown)
VH: EVQLVESGGALVQPGGSLRLSCIVSGPSLSHFDITWFRQAPGKGLEWVATISPGVSTYYASWAKSRFTISTDTSKNTLFLQMDSLRAEDTAVYYCARGGVGSSWKAFDLWGPGTLVTVSS
VL: QIVLTQSPATLSASVGDRVTITCQASESISTALAWYQQKPGKAPKLLIYKASTLPSGVPSRFSGSGSGTEFTLTISSLQPDDSATYYCQQGFSSGNVHNAFGQGTKLEIKR
B6: h48D2 VH2:VL3 (antibody, human IgG1, kappa, L234A L235A, V domains shown)
VH: B5 VH
VL: B3 VL
B7: h48D2 VH3:VL2 (antibody, human IgG1, kappa, L234A L235A, V domains shown)
VH: B3 VH
VL: B5 VL
B8: h48D2 VH2:VL4 (antibody, human IgG1, kappa, L234A L235A, V domains shown)
VH: B5 VH
VL: B1 VL
B9: h48D2 VH2:VL5 (antibody, human IgG1, kappa, L234A L235A, V domains shown)
VH: B5 VH
VL: APVLTQSPATLEASVGDRVTITCQASESISTALAWYQQKPGQPPKLLIYKASTLPSGVPSRFSGSGSGTEFTLTISDLESDDAATYYCQQGFSSGNVHNAFGGGTEVVVKR
B10: h48D2 VH3:VL1 (antibody, human IgG1, kappa, L234A L235A, V domains shown)
VH: B3 VH
VL: B1 VL with E1D, L2I, V11L, N76S, E108V

Changes are numbered by the printed parent chain. These are yes or no findings as the source states them, for the method shown. A result given as binding can be weak or reduced; the word gives no strength.

One assay has as its target hIL1RAP(21-367) (人). Nature of the assay: binding ELISA, coated hIL1RAP aa21-367.
B1: the binding entry is listed as “binds”.

Turning to B2, the binding entry was “binds”.

Take B3: the binding result was “binds”.

As for B4, the binding result was “binds”.

For B5, the binding entry was “binds”.

In the case of B6, the binding entry was “binds”.

Regarding B7, the binding entry is given as “binds”.

Take B8: the binding entry was “binds”.

As to B9, the binding entry is reported as “binds”.

With B10, the binding entry is listed as “binds”.

A further assay deals with hIL1RAP(21-367) (人). The assay can be described thus: BLI (BLItz), protein A sensor.
For B3, the binding entry is on record as “binds”.

Turning to B4, the binding entry was “binds”.

Turning to B5, the binding entry is “binds”.

Regarding B6, the binding entry is “binds”.

Regarding B7, the binding entry is given as “binds”.

Consider B8, for which the binding result is “binds”.

For the molecule B9, the binding result is “binds”.

As for B10, the binding entry is “binds”.
